Data as given in PubChem BioAssay AID1508597 (Cure First, 2020).
Shown is a random part of the about 2,100 reagents, in one setting of the screen. 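Calls flag viability under 80% in either arm, not effects specific to rucaparib; the reference for percent is not stated.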 Entries without a mark were called inactive. A reagent listed more than once was tested more than once; the source does not tell the runs apart. Not stated in the record: the 100% reference.

- Purpose: 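Survival screen with siRNA in ovarian cancer cells derived from patients, with or without rucaparib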 (primary screen)
- Cells: human ovarian carcinoma lines grown from tumours: OCI-P5x (papillary serous) and OCI-C5x (clear cell)
- Reagent: siRNA pool against human genes, 1.25 pmol siRNA per well
- Timing: 72 h or 96 h, depending on the cell culture
- Challenge: rucaparib 20 µM (about IC30) or vehicle, present until read-out
- Rucaparib or vehicle: Rucaparib
- Cell line: OCI-P5x (serous)
- Detection: 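Luminescent ATP-based viability assay read 72 or 96 h after transfection, depending on culture, given as normalised percent viability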
- Scale: viability, normalised: higher = more viable cells remaining
- Call rule: 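Active when normalised viability falls below 80 percent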
- Meaning of the calls: active = viability under 80%; inactive = viability 80% or more

For BRCA2 (BRCA2 DNA repair associated), technical replicate 1, the values are viability, normalised (%) = 45.7 (active).
BRCA2 (BRCA2 DNA repair associated), technical replicate 1 showed viability, normalised (%) = 55.2 (active).
BRCA2 (BRCA2 DNA repair associated), technical replicate 1 gave viability, normalised (%) = 59.8 (active).
BRCA2 (BRCA2 DNA repair associated), technical replicate 2 showed viability, normalised (%) = 42.2 (active).
BRCA2 (BRCA2 DNA repair associated), technical replicate 2 scored viability, normalised (%) = 57.5 (active).
BRCA2 (BRCA2 DNA repair associated), technical replicate 2 gave viability, normalised (%) = 72.3 (active).
BRCA2 (BRCA2 DNA repair associated), technical replicate 3 scored viability, normalised (%) = 55 (active).
With BRCA2 (BRCA2 DNA repair associated), technical replicate 3 the deposit lists viability, normalised (%) = 48 (active).
BRCA2 (BRCA2 DNA repair associated), technical replicate 3 gave viability, normalised (%) = 55.7 (active).

2 entries from above, set out differently:
{"target": "BRCA2 (BRCA2 DNA repair associated)", "technical replicate": "2", "viability, normalised (%)": "72.3 (active)"}
{"target": "BRCA2 (BRCA2 DNA repair associated)", "technical replicate": "3", "viability, normalised (%)": "55 (active)"}

The listing continues:
For SIRT1 (sirtuin 1), technical replicate 1 the deposit lists viability, normalised (%) = 99.7.
For SIRT1 (sirtuin 1), technical replicate 1, the entry reads viability, normalised (%) = 38 (active).
For SIRT1 (sirtuin 1), technical replicate 2, the entry reads viability, normalised (%) = 122.
SIRT1 (sirtuin 1), technical replicate 2 showed viability, normalised (%) = 50.1 (active).
SIRT1 (sirtuin 1), technical replicate 3 scored viability, normalised (%) = 46 (active).
SIRT1 (sirtuin 1), technical replicate 3 gave viability, normalised (%) = 92.3.
